# Data reported in the supplement of paper PMC8728848.
# The other results are listed elsewhere or left out.
# Columns and labels:
# Assay in all cases: glycan array binding signal (z-score within array); higher = stronger binding
# Conditions in all cases: glycan notation: IUPAC condensed, linker removed
# [1] = biological target: Gal(b1-4)GlcNAc(b1-3)Gal(b1-4)GlcNAc(b1-2)[Gal(b1-4)GlcNAc(b1-3)Gal(b1-4)GlcNAc(b1-6)]Man(a1-6)[Gal(b1-4)GlcNAc(b1-3)Gal(b1-4)GlcNAc(b1-2)Man(a1-3)]Man(b1-4)GlcNAc(b1-4)GlcNAc
# Outline: (§1)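 From the Consortium for Functional Glycomics database, 3228 arrays were curated, keeping only those whose protein sequence was available. Binding is given as a within-array Z-score averaged across arrays sharing a protein sequence and across linkers. Negative Z-scores can be read as non-binding.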
# [2] = biological target: Gal(b1-4)GlcNAc(b1-3)Gal(b1-4)GlcNAc(b1-2)[Gal(b1-4)GlcNAc(b1-3)Gal(b1-4)GlcNAc(b1-6)]Man(a1-6)[Gal(b1-4)GlcNAc(b1-3)Gal(b1-4)GlcNAc(b1-2)Man(a1-3)]Man(b1-4)GlcNAc(b1-4)[Fuc(a1-6)]GlcNAc
# Outline: as §1
# [3] = biological target: Gal(b1-4)GlcNAc(b1-3)Gal(b1-4)GlcNAc(b1-3)Gal(b1-4)GlcNAc
# Outline: as §1
# [4] = biological target: Gal(b1-4)GlcNAc(b1-3)Gal(b1-4)GlcNAc(b1-3)Gal(b1-4)GlcNAc(b1-2)Man(a1-3)[Gal(b1-4)GlcNAc(b1-3)Gal(b1-4)GlcNAc(b1-3)Gal(b1-4)GlcNAc(b1-2)Man(a1-6)]Man(b1-4)GlcNAc(b1-4)GlcNAc
# Outline: as §1
# [5] = biological target: Gal(b1-4)GlcNAc(b1-3)Gal(b1-4)GlcNAc(b1-3)Gal(b1-4)GlcNAc(b1-2)Man(a1-3)[Gal(b1-4)GlcNAc(b1-3)Gal(b1-4)GlcNAc(b1-3)Gal(b1-4)GlcNAc(b1-2)Man(a1-6)]Man(b1-4)GlcNAc(b1-4)[Fuc(a1-6)]GlcNAc
# Outline: as §1
# [6] = biological target: Gal(b1-4)GlcNAc(b1-3)Gal(b1-4)GlcNAc(b1-3)Gal(b1-4)GlcNAc(b1-2)[Gal(b1-4)GlcNAc(b1-3)Gal(b1-4)GlcNAc(b1-3)Gal(b1-4)GlcNAc(b1-6)]Man(a1-6)[Gal(b1-4)GlcNAc(b1-3)Gal(b1-4)GlcNAc(b1-3)Gal(b1-4)GlcNAc(b1-2)Man(a1-3)]Man(b1-4)GlcNAc(b1-4)[Fuc(a1-6)]GlcNAc
# Outline: as §1
# [7] = biological target: Gal(b1-4)GlcNAc(b1-3)Gal(b1-4)GlcNAc(b1-3)Gal(b1-4)GlcNAc(b1-3)Gal(b1-4)GlcNAc(b1-2)Man(a1-3)[Gal(b1-4)GlcNAc(b1-3)Gal(b1-4)GlcNAc(b1-3)Gal(b1-4)GlcNAc(b1-3)Gal(b1-4)GlcNAc(b1-2)Man(a1-6)]Man(b1-4)GlcNAc(b1-4)GlcNAc
# Outline: as §1
# [8] = biological target: Gal(b1-4)GlcNAc(b1-3)Gal(b1-4)GlcNAc(b1-3)Gal(b1-4)GlcNAc(b1-3)Gal(b1-4)GlcNAc(b1-2)Man(a1-3)[Gal(b1-4)GlcNAc(b1-3)Gal(b1-4)GlcNAc(b1-3)Gal(b1-4)GlcNAc(b1-3)Gal(b1-4)GlcNAc(b1-2)Man(a1-6)]Man(b1-4)GlcNAc(b1-4)[Fuc(a1-6)]GlcNAc
# Outline: as §1
# [9] = biological target: Gal(b1-4)GlcNAc(b1-3)Gal(b1-4)GlcNAc(b1-3)Gal(b1-4)GlcNAc(b1-3)Gal(b1-4)GlcNAc(b1-2)[Gal(b1-4)GlcNAc(b1-3)Gal(b1-4)GlcNAc(b1-3)Gal(b1-4)GlcNAc(b1-3)Gal(b1-4)GlcNAc(b1-6)]Man(a1-6)[Gal(b1-4)GlcNAc(b1-3)Gal(b1-4)GlcNAc(b1-3)Gal(b1-4)GlcNAc(b1-3)Gal(b1-4)GlcNAc(b1-2)Man(a1-3)]Man(b1-4)GlcNAc(b1-4)[Fuc(a1-6)]GlcNAc
# Outline: as §1
# [10] = biological target: Gal(b1-4)GlcNAc(b1-3)Gal(b1-4)GlcNAc(b1-3)Gal(b1-4)GlcNAc(b1-3)Gal(b1-4)GlcNAc(b1-3)Gal(b1-4)GlcNAc(b1-2)Man(a1-3)[Gal(b1-4)GlcNAc(b1-3)Gal(b1-4)GlcNAc(b1-3)Gal(b1-4)GlcNAc(b1-3)Gal(b1-4)GlcNAc(b1-3)Gal(b1-4)GlcNAc(b1-2)Man(a1-6)]Man(b1-4)GlcNAc(b1-4)GlcNAc
# Outline: as §1
# [11] = biological target: Gal(b1-4)GlcNAc(b1-3)Gal(b1-4)GlcNAc(b1-3)Gal(b1-4)GlcNAc(b1-3)Gal(b1-4)GlcNAc(b1-3)Gal(b1-4)GlcNAc(b1-2)Man(a1-3)[Gal(b1-4)GlcNAc(b1-3)Gal(b1-4)GlcNAc(b1-3)Gal(b1-4)GlcNAc(b1-3)Gal(b1-4)GlcNAc(b1-3)Gal(b1-4)GlcNAc(b1-2)Man(a1-6)]Man(b1-4)GlcNAc(b1-4)[Fuc(a1-6)]GlcNAc
# Outline: as §1
# [12] = biological target: Gal(b1-4)GlcNAc(b1-3)Gal(b1-4)GlcNAc(b1-3)Gal(b1-4)GlcNAc(b1-3)Gal(b1-4)GlcNAc(b1-3)Gal(b1-4)GlcNAc(b1-2)[Gal(b1-4)GlcNAc(b1-3)Gal(b1-4)GlcNAc(b1-3)Gal(b1-4)GlcNAc(b1-3)Gal(b1-4)GlcNAc(b1-3)Gal(b1-4)GlcNAc(b1-6)]Man(a1-6)[Gal(b1-4)GlcNAc(b1-3)Gal(b1-4)GlcNAc(b1-3)Gal(b1-4)GlcNAc(b1-3)Gal(b1-4)GlcNAc(b1-3)Gal(b1-4)GlcNAc(b1-2)Man(a1-3)]Man(b1-4)GlcNAc(b1-4)[Fuc(a1-6)]GlcNAc
# Outline: as §1
# [13] = biological target: Gal(b1-4)GlcNAc(b1-3)Gal(b1-4)GlcNAc(b1-3)Gal(b1-4)GlcNAc(b1-3)Gal(b1-4)GlcNAc(b1-3)Gal(b1-4)GlcNAc(b1-3)Gal(b1-4)GlcNAc(b1-2)Man(a1-3)[Gal(b1-4)GlcNAc(b1-3)Gal(b1-4)GlcNAc(b1-3)Gal(b1-4)GlcNAc(b1-3)Gal(b1-4)GlcNAc(b1-3)Gal(b1-4)GlcNAc(b1-3)Gal(b1-4)GlcNAc(b1-2)Man(a1-6)]Man(b1-4)GlcNAc(b1-4)GlcNAc
# Outline: as §1
# [14] = biological target: Gal(b1-4)GlcNAc(b1-3)Gal(b1-4)GlcNAc(b1-3)GalNAc
# Outline: as §1
# [15] = biological target: Gal(b1-4)GlcNAc(b1-3)Gal(b1-4)GlcNAc(b1-3)[Gal(b1-4)GlcNAc(b1-3)Gal(b1-4)GlcNAc(b1-6)]GalNAc
# Outline: as §1
# [16] = biological target: Gal(b1-4)GlcNAc(b1-3)Gal(b1-4)GlcNAc(b1-6)[Gal(b1-3)]GalNAc
# Outline: as §1
# [17] = biological target: Gal(b1-4)GlcNAc(b1-3)Gal(b1-4)[Fuc(a1-3)]GlcNAc(b1-3)Gal(b1-4)[Fuc(a1-3)]GlcNAc
# Outline: as §1
# [18] = biological target: Gal(b1-4)GlcNAc(b1-3)GalNAc
# Outline: as §1
# [19] = biological target: Gal(b1-4)GlcNAc(b1-3)[Fuc(a1-3)GlcNAc(b1-6)]Gal(b1-4)Glc
# Outline: as §1
# [20] = biological target: Gal(b1-4)GlcNAc(b1-3)[Gal(b1-4)GlcNAc(b1-6)]Gal(b1-4)GlcNAc
# Outline: as §1
# [21] = biological target: Gal(b1-4)GlcNAc(b1-3)[GlcNAc(b1-6)]Gal(b1-4)GlcNAc
# Outline: as §1
# [22] = biological target: Gal(b1-4)GlcNAc(b1-6)Gal(b1-4)GlcNAc
# Outline: as §1
binder,measurement,setting,value
Mermaid2 (Stilbonema majum) (protein) MGSSHHHHHHSSGLVPRGSHMAASGWLRSPQGTVVKLYRRSLSWSKADEFCKDVDGRLVVDRTADMHLFLIKNVLKEKKSRVWVGLRRTAPHSRTWIWSDGTRQNEDDLNTNLWLRDEPNDAAGEEECALFMYSPWEKAWGLNDYLCRGGCRSYQFICEKGIR,glycan array binding signal (z-score),[1],5.21
same,glycan array binding signal (z-score),[2],0.398
same,glycan array binding signal (z-score),[3],0.308
same,glycan array binding signal (z-score),[4],-0.095
same,glycan array binding signal (z-score),[5],-0.138
same,glycan array binding signal (z-score),[6],-0.084
same,glycan array binding signal (z-score),[7],0.136
same,glycan array binding signal (z-score),[8],0.363
same,glycan array binding signal (z-score),[9],0.456
same,glycan array binding signal (z-score),[10],0.012
same,glycan array binding signal (z-score),[11],-0.539
same,glycan array binding signal (z-score),[12],-0.215
same,glycan array binding signal (z-score),[13],-0.526
same,glycan array binding signal (z-score),[14],-0.552
same,glycan array binding signal (z-score),[15],0.639
same,glycan array binding signal (z-score),[16],1.05
same,glycan array binding signal (z-score),[17],0.419
same,glycan array binding signal (z-score),[18],-0.428
same,glycan array binding signal (z-score),[19],-0.582
same,glycan array binding signal (z-score),[20],0.024
same,glycan array binding signal (z-score),[21],1.79
same,glycan array binding signal (z-score),[22],-0.432

# Rewritten with tabs: entries from further up
binder	measurement	setting	value
Mermaid2 (Stilbonema majum) (protein) MGSSHHHHHHSSGLVPRGSHMAASGWLRSPQGTVVKLYRRSLSWSKADEFCKDVDGRLVVDRTADMHLFLIKNVLKEKKSRVWVGLRRTAPHSRTWIWSDGTRQNEDDLNTNLWLRDEPNDAAGEEECALFMYSPWEKAWGLNDYLCRGGCRSYQFICEKGIR	glycan array binding signal (z-score)	[4]	-0.095
same	glycan array binding signal (z-score)	[5]	-0.138
